US6365711
Results are given in words; binding and its absence hold for the method and conditions named. For part of these data: Binding calls can cover weak binding; strength is not graded here. Sequences can lack the tags named with a protein.

Tests used:
[1] = molecular target: HA-tagged Smad4; assay: Myc-tagged FAST-1 deletion mutant co-expressed with tagged Smad and activin in Xenopus embryos (summarised in FIG. 6A)
[2] = molecular target: HA-tagged Smad4; assay: FAST-1 deletion mutant co-expressed with tagged Smad in Xenopus embryos

Binder | binding [1] | binding [2]
Myc-tagged Δ1-366 FAST-1 (protein, not shown: small tags and cut ends) HPIKRSREDDDCSTTSSDPDTGNYSPIEPPKKMPLLSLDLPTSYTKSVAPNVVAPPSVLPFFHFPRFTYYNYGPSPYMTPPYWGFPHPTNSGGDSPRGPQSPLDLDNMLRAMPPNKSVFDVLTSHPGDLVHPSFLSQCLGSSGSPYPSRQGLMYRRRPPGLTWSGHSMK | binds | 
Myc-tagged Δ506-534 (protein, not shown: small tags and cut ends) YREGGTWSPDRGSMYGLSPGTHEGSCTHTHEGPKDSMAGDQTRSRKSKKKNYHRYNKPPYSYLAMIALVIQNSPEKRLKLSQILKEVSTLFPFFNGDYMGWKDSIRHNLSSSDCFKKILKDPGKPQAKGNFWTVDVSRIPLDAMKLQNTALTRGGSDYFVQDLAPYILHNYKYEHNAGAYGHQMPPSHARSLSLAEDSQQTNTGGKLNTSFMIDSLLHDLQEVDLPDASRNLENQRISPAVAMNNMWSSAPLLYTHSKPTRNARSPGLSTIHSTYSSSSSSISTISPVGFQKEQEKSGRQTQRVGHPIKRSREDDDCSTTSSDPDTGNYSPIEPPKKMPLLSLDLPTSYTKSVAPNVVAPPSVLPFFHFPRFTYYNYGPSPYMTPPYWGFPHPTNSGGDSPRGPQSPLDLDNMLRAMPPNKSVFDVLTSHPGDLVHPSFLSQCLG | binds | 
Myc-tagged Δ473-534 (protein, not shown: small tags and cut ends) YREGGTWSPDRGSMYGLSPGTHEGSCTHTHEGPKDSMAGDQTRSRKSKKKNYHRYNKPPYSYLAMIALVIQNSPEKRLKLSQILKEVSTLFPFFNGDYMGWKDSIRHNLSSSDCFKKILKDPGKPQAKGNFWTVDVSRIPLDAMKLQNTALTRGGSDYFVQDLAPYILHNYKYEHNAGAYGHQMPPSHARSLSLAEDSQQTNTGGKLNTSFMIDSLLHDLQEVDLPDASRNLENQRISPAVAMNNMWSSAPLLYTHSKPTRNARSPGLSTIHSTYSSSSSSISTISPVGFQKEQEKSGRQTQRVGHPIKRSREDDDCSTTSSDPDTGNYSPIEPPKKMPLLSLDLPTSYTKSVAPNVVAPPSVLPFFHFPRFTYYNYGPSPYMTPPYWGFPHPTNSGGDSPRGPQSPLDLDN |  | no binding
